Results are given in words; binding and its absence hold for the method and conditions named. In cells and extracts the contact can be indirect. A result given as binding can be weak or reduced; the word gives no strength.
Molecular target: T1, endogenous Munc13-4 (rat (endogenous in RBL-2H3)) (UniProt Q9R189)
T1 sequence: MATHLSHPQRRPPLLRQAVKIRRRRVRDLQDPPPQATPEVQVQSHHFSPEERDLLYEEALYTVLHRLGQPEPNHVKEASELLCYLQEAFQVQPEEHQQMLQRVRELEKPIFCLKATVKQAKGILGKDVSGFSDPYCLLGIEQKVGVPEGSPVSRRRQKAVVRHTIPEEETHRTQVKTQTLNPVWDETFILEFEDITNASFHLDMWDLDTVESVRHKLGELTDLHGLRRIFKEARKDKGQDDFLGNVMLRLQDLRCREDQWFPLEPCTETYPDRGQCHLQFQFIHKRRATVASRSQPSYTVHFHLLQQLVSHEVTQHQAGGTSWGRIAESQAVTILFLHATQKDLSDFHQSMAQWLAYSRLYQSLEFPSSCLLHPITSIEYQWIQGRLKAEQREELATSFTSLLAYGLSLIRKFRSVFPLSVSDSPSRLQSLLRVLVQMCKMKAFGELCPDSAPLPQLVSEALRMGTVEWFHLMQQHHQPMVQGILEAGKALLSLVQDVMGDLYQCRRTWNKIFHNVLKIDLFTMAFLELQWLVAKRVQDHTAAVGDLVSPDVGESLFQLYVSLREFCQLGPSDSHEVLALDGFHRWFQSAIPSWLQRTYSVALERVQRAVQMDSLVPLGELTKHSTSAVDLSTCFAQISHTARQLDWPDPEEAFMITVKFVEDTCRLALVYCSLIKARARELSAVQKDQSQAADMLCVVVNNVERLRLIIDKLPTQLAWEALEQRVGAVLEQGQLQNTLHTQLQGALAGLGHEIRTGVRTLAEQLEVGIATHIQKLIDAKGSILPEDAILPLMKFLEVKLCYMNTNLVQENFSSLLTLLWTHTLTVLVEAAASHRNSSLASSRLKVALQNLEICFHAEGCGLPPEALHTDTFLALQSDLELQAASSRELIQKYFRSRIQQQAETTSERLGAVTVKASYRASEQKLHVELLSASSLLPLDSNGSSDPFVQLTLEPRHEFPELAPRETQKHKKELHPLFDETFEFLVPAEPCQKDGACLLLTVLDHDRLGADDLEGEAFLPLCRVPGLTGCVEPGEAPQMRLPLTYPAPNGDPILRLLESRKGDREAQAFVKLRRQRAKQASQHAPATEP
Experiment: co-IP; RBL-2H3 cells transfected with HA-Rab37, G418-selected, treated with 1 mM DSP before lysis; immunoprecipitation with or without anti-Munc13-4 antibody; blot with anti-HA (3F10) or anti-Munc13-4

## HA-Rab37 (in RBL-2H3 cells) (rat)
  binding: binds

— paper PMC4773767
